# Experimental data from PubChem BioAssay AID256 (DTP/NCI, 2004).
# The list is a part of this screen's results and no random one: it is rich in T/C values a quarter to a half above the control, in often repeated tests (any T/C) and in doses without a T/C. Further doses and runs are listed elsewhere. T/C: endpoint of the treated group in % of that of the vehicle group. Some doses have a count of surviving animals in place of a T/C: the source files T/C as zero there, which appears to mark a toxic dose or a test without result, not a measured value. Some survivor counts are full or nearly so, which does not show that the dose was tolerated: survival well below the control is almost never listed, so the zero probably covers shortened survival too. Counts of survivors are from the toxicity check (mostly the fifth day) where no day follows; animals may have died later. Schedule codes are those of the source, read here as Q, the interval in days (D) or hours (H), X, the number of doses. Some molecules as drawn cover several salts, stereoisomers or complexes of the source; a dose is that of the sample tested. Marks such as (2×) count equal records among those shown. Some doses were run more than once; the values are given in rising order. For survival time, the PubChem record calls one and a half times the control and up active, and a quarter to a half above the control has no call in these data; cut-offs in other NCI protocols can differ. Some schedules carry Z or #; the key to these is not given.
# Test system: CD2F1 mice, L1210 leukemia ip, survival T/C
# Test: NCI In Vivo Anticancer Drug Screen. Data for tumor model L1210 Leukemia (intraperitoneal) in CD2F1 (CDF1) mice
# Conditions: higher T/C = longer survival
# Method in brief: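 Compound-dosed mice with transplantable tumor versus matched vehicle controls; endpoint ratio T/C reported.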
# [1] = T/C endpoint: mean survival time, dose: 200.0 mg/kg/injection, schedule: Q04DX003 (ip), vehicle: saline
# [2] = T/C endpoint: mean survival time, dose: 400.0 mg/kg/injection, schedule: Q04DX003 (ip), vehicle: saline
# [3] = T/C endpoint: mean survival time, dose: 50.0 mg/kg/injection, schedule: Q01DX009 (ip), vehicle: Klucel (hydroxypropylcellulose) (HPC)
# [4] = T/C endpoint: mean survival time, dose: 100.0 mg/kg/injection, schedule: Q04DX003 (ip), vehicle: saline
# [5] = T/C endpoint: mean survival time, dose: 400.0 mg/kg/injection, schedule: Q04DX003 (ip), vehicle: other
# [6] = T/C endpoint: mean survival time, dose: 100.0 mg/kg/injection, schedule: Q04DX003 (ip), vehicle: saline with Tween-80
# [7] = T/C endpoint: mean survival time, dose: 200.0 mg/kg/injection, schedule: Q04DX003 (ip), vehicle: saline with Tween-80
# [8] = T/C endpoint: mean survival time, dose: 400.0 mg/kg/injection, schedule: Q04DX003 (ip), vehicle: saline with Tween-80
# [9] = T/C endpoint: mean survival time, dose: 25.0 mg/kg/injection, schedule: Q01DX009 (ip), vehicle: saline
# [10] = T/C endpoint: mean survival time, dose: 50.0 mg/kg/injection, schedule: Q01DX009 (ip), vehicle: saline
# [11] = T/C endpoint: mean survival time, dose: 400.0 mg/kg/injection, schedule: Q01DX009 (ip), vehicle: saline
compound,measurement,setting,value
O=C(O)c1cccnc1[N+](=O)[O-],survivor count,"T/C endpoint: mean survival time, dose: 400.0 mg/kg/injection, schedule: Q01DX001 (ip), vehicle: saline with Tween-80",1 of 6
N#[N+]c1c([O-])[nH]c2ccccc12,survivor count,"T/C endpoint: median survival time, dose: 400.0 mg/kg/injection, schedule: Q04DX002 (ip), vehicle: saline with Tween-80",3 of 3
C[n+]1ccccc1/C=N/O,survivor count,[1],0 of 6
same,survivor count,[2],0 of 6
Cc1cc(N(CCI)CCI)ccc1N=Nc1ccccc1C(=O)O,T/C,[3],132 % of control
same,survivor count,"T/C endpoint: mean survival time, dose: 100.0 mg/kg/injection, schedule: Q01DX009 (ip), vehicle: Klucel (hydroxypropylcellulose) (HPC)",3 of 3
same,survivor count,"T/C endpoint: mean survival time, dose: 200.0 mg/kg/injection, schedule: Q01DX009 (ip), vehicle: Klucel (hydroxypropylcellulose) (HPC)",3 of 3
C[N+](C)(C)CC1CCCC1,survivor count,"T/C endpoint: mean survival time, dose: 80.0 mg/kg/injection, schedule: Q01DX001 (ip), vehicle: saline",0 of 6
O=CC(CO)OC(C=O)n1cnc2c(=O)[nH]c(=O)[nH]c21 (stereo not given),survivor count,"T/C endpoint: mean survival time, dose: 200.0 mg/kg/injection, schedule: Q01DX005 (ip), vehicle: water",4 of 6
CCOC(=O)COC(CC[P+](c1ccccc1)(c1ccccc1)c1ccccc1)(C(=O)c1ccccc1)c1ccccc1 (stereo not given),survivor count,"T/C endpoint: mean survival time, dose: 10.0 mg/kg/injection, schedule: Q01DX001 (ip), vehicle: saline with Tween-80",2 of 6
CC1=Nc2ccccc2N2C1=CC1=C(C(=O)c3cc4ccccc4cc3C1=O)C2C (stereo not given),survivor count,[4],2 of 3
COc1ccc(N2CSC(=S)N(c3ccc(OC)cc3)C2)cc1,survivor count,"T/C endpoint: mean survival time, dose: 200.0 mg/kg/injection, schedule: Q04DX003 (ip), vehicle: other",6 of 6
same,survivor count,[5],6 of 6
CC1NC(=O)OC1(C)C(C)(C)C (stereo not given),survivor count,[6],0 of 6
same,survivor count,[7],0 of 6
same,survivor count,[8],0 of 6
CN(Cc1cnc2nc(N)nc(N)c2n1)c1c(Cl)cc(C(=O)NC(CCC(=O)O)C(=O)O)cc1Cl (stereo not given),T/C,"T/C endpoint: mean survival time, dose: 200.0 mg/kg/injection, schedule: Q01DX009 (ip), vehicle: sodium bicarbonate",127 % of control
same,T/C,"T/C endpoint: median survival time, dose: 100.0 mg/kg/injection, schedule: Q01DX009 (ip), vehicle: sodium bicarbonate",140 % of control
Nc1nc(NCCc2ccccc2)c2ncn(C3OC(CO)C(O)C3O)c2n1 (stereo not given),survivor count,"T/C endpoint: mean survival time, dose: 200.0 mg/kg/injection, schedule: Q01DX005 (ip), vehicle: other",2 of 6
Cc1ncc(CO)c(C)n1,survivor count,"T/C endpoint: mean survival time, dose: 20.0 mg/kg/injection, schedule: Q01DX001 (ip), vehicle: saline with Tween-80",0 of 6
same,survivor count,"T/C endpoint: mean survival time, dose: 40.0 mg/kg/injection, schedule: Q01DX001 (ip), vehicle: saline with Tween-80",0 of 6
same,survivor count,"T/C endpoint: mean survival time, dose: 80.0 mg/kg/injection, schedule: Q01DX001 (ip), vehicle: saline with Tween-80",0 of 6
Nc1nc(N)c2c(=O)c(CNc3ccc(C(=O)NC(CCC(=O)O)C(=O)O)cc3)c[nH]c2n1 (stereo not given),survivor count,"T/C endpoint: mean survival time, dose: 8.0 mg/kg/injection, schedule: Q01DX005 (ip), vehicle: sodium bicarbonate",6 of 6
CN(C)c1ccc(C2(O)C3CCC2CC3)cc1 (stereo not given),survivor count,"T/C endpoint: median survival time, dose: 200.0 mg/kg/injection, schedule: Q04DX002 (ip), vehicle: saline with Tween-80",0 of 3
CCc1cccc[n+]1Cc1ccccc1,survivor count,"T/C endpoint: mean survival time, dose: 12.5 mg/kg/injection, schedule: Q01DX009 (ip), vehicle: saline",3 of 3
same,survivor count,[9],3 of 3
same,survivor count,[10],0 of 3
Cc1nc(N)[nH]c(=O)c1[N+](=O)[O-],survivor count,[5],2 of 6
N#Cc1c(-c2ccc(F)cc2)c(-c2ccc(F)cc2)nn(CCO)c1=O,T/C,"T/C endpoint: median survival time, dose: 120.0 mg/kg/injection, schedule: Q01DX005 (ip), vehicle: water",125 % of control
same,T/C,"T/C endpoint: median survival time, dose: 200.0 mg/kg/injection, schedule: Q01DX005 (ip), vehicle: distilled water + Tween-80",130 % of control
same,T/C,"T/C endpoint: median survival time, dose: 300.0 mg/kg/injection, schedule: Q01DX005 (ip), vehicle: distilled water + Tween-80",144 % of control
same,T/C,"T/C endpoint: median survival time, dose: 333.33 mg/kg/injection, schedule: Q01DX005 (ip), vehicle: water",125 % of control
same,survivor count,"T/C endpoint: median survival time, dose: 555.5 mg/kg/injection, schedule: Q01DX005 (ip), vehicle: water",3 of 6
same,T/C,"T/C endpoint: median survival time, dose: 555.55 mg/kg/injection, schedule: Q01DX005 (ip), vehicle: water",125 % of control
same,T/C,"T/C endpoint: median survival time, dose: 741.13 mg/kg/injection, schedule: Q01DX005 (ip), vehicle: water",135 % of control
same,survivor count,"T/C endpoint: median survival time, dose: 833.3 mg/kg/injection, schedule: Q01DX005 (ip), vehicle: distilled water + Tween-80",3 of 6
ClC1CCC(Cl)C2CCC3C(Cl)CCC1[S+]23 (stereo not given),survivor count,"T/C endpoint: mean survival time, dose: 25.0 mg/kg/injection, schedule: Q01DX009 (ip), vehicle: Klucel (hydroxypropylcellulose) (HPC)",0 of 6
same,survivor count,[3],0 of 6
COc1ccc(C2N(C)CCCN2C)c(OC)c1,survivor count,[6],1 of 6
same,survivor count,[7],0 of 6
same,survivor count,[8],0 of 6
C(CC1CCNCC1)CC1CCNCC1,survivor count,[6],0 of 3
CCOC1CC2c3ccccc3C1c1cccc[n+]12 (stereo not given),survivor count,[4],5 of 6
same,survivor count,[1],1 of 6 (2×)
same,survivor count,[2],0 of 6 and 1 of 6
N=C(N)c1ccc(N=NNc2ccc(C(=N)N)cc2)cc1,survivor count,"T/C endpoint: median survival time, dose: 50.0 mg/kg/injection, schedule: Q01DX009 (ip), vehicle: saline with Tween-80",5 of 6
same,survivor count,"T/C endpoint: median survival time, dose: 100.0 mg/kg/injection, schedule: Q01DX009 (ip), vehicle: saline with Tween-80",0 of 6
same,survivor count,"T/C endpoint: median survival time, dose: 200.0 mg/kg/injection, schedule: Q01DX009 (ip), vehicle: saline with Tween-80",0 of 6
CC1CN1C(=O)OCCOC(=O)N1CC1C (stereo not given),T/C,"T/C endpoint: mean survival time, dose: 675.0 mg/kg/injection, schedule: Q01DX Z (ip), vehicle: saline",149 % of control
CC(=O)/C=C(\C)OC1CCCCC1,survivor count,[11],3 of 6
[Cl][Pt]([Cl])([Cl])[Cl],survivor count,[9],5 of 6
same,survivor count,[10],"0 of 6, 2 of 6, 3 of 6"
same,survivor count,"T/C endpoint: mean survival time, dose: 50.0 mg/kg/injection, schedule: Q01DX009 (ip), vehicle: suspension in saline",0 of 6
same,survivor count,"T/C endpoint: mean survival time, dose: 100.0 mg/kg/injection, schedule: Q01DX009 (ip), vehicle: saline",0 of 6 (2×)
same,survivor count,[4],0 of 6 (2×)
same,survivor count,"T/C endpoint: mean survival time, dose: 200.0 mg/kg/injection, schedule: Q01DX009 (ip), vehicle: saline",0 of 6 (2×)
same,survivor count,[1],0 of 6 (2×)
same,survivor count,[11],0 of 6 (2×)
same,survivor count,[2],0 of 6 (2×)
O=c1c(O)c(O)c1=O.[NH2-].[NH2-].[NH2-].[NH2-].[NH2-].[Ru+5],T/C,"T/C endpoint: median survival time, dose: 12.5 mg/kg/injection, schedule: Q01DX005 (ip), vehicle: saline",130 % of control
same,T/C,"T/C endpoint: median survival time, dose: 25.0 mg/kg/injection, schedule: Q01DX005 (ip), vehicle: suspension in saline",130 % of control
same,survivor count,"T/C endpoint: median survival time, dose: 50.0 mg/kg/injection, schedule: Q01DX005 (ip), vehicle: saline",0 of 6
same,survivor count,"T/C endpoint: median survival time, dose: 50.0 mg/kg/injection, schedule: Q01DX005 (ip), vehicle: suspension in saline",0 of 6
COc1cc2cc3c4cc5c(cc4cc[n+]3c(C)c2cc1OC)OCO5 (tested in a mixture with another compound),survivor count,[7],1 of 6
same,survivor count,[8],0 of 6
